# Measured values from patent publication US20220380455A1.
# These are yes or no findings as the source states them, for the method shown. Some binding calls cover weakened binding; strength is not graded here.
# T1: MS4A6A ECL2 peptide (human)
# T1 sequence (peptide): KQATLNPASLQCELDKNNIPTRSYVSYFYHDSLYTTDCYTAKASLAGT
# Molecular target: T1, MS4A6A ECL2 peptide (human)
# Assay: array SPR (Carterra MX-96); Carterra SPR traces: weak signal, no KD fitted; also positive by ELISA
binder,measurement,value
"6A-6 (antibody, V domains shown) VH: QIQLVQSGPELKKPGESVKISCKASGYTFANYGMNWVKLAPGKGLKWMGYINIYSGKSRYADDFKGRFAFSLETSASTAYLQINNLKNEDMATYFCARDNDYFDYWGQGTTLTVSS VL: DIVLTQSPATLSVTPGDTVSLSCRASQSISDNLHWYQQKSHESPGLLIKYASQSISGIPSRFSGRGSGTDFTLSINSVDSEDFGVYFCQQSNSWPYTFGGGTKLEIK",binding,binds
